Some results were stated once for a whole list of compounds, not compound by compound.
Biological target: T1, BRD4 BD2 (Homo sapiens, UniProt O60885, Y97A)
T1 construct: BRD4 (1-477) (Y97A) and (Y390A); made in house; host or cells: E. coli (pET15b vector)
Assay: BRD4 BD2 TR-FRET competition assay
Assay type: binding
Details: for fold selective for BRD4 BD2 over BRD4 BD1: derived from the log unit selectivity; for selectivity for BRD4 BD2 over BRD4 BD1 (BRD4 BD2 pIC50 - BRD4 BD1 pIC50): in at least one of the TR-FRET assays

`CCO[C@@H]1C[C@H]1NC(=O)c1cc(C(=O)NC)c(=O)n(Cc2cccc(C)c2)c1` (racemic) [Example 223, (+/−)-N5-((trans)-2-ethoxycyclopropyl)-N3-methyl-1-(3-methylbenzyl)-2-oxo-1,2-dihydropyridine-3,5-dicarboxamide] was tested, and the “fold selective for BRD4 BD2 over BRD4 BD1” value (“fold selective for BRD4 BD2” for short) was “at least 100 fold” and the “selectivity for BRD4 BD2 over BRD4 BD1 (BRD4 BD2 pIC50 - BRD4 BD1 pIC50)” value (“selectivity for BRD4 BD2 over BRD4 BD1” below) was no less than 2 log unit.
In the case of `CNC(=O)c1cc(C(=O)NC2CC2(C)C)cn(Cc2ccccc2)c1=O` (single isomer, unassigned) [Example 249, (S*)-1-Benzyl-N5-(2,2-dimethylcyclopropyl)-N3-methyl-2-oxo-1,2-dihydropyridine-3,5-dicarboxamide], the “fold selective for BRD4 BD2” value is reported as “at least 100 fold” and the “selectivity for BRD4 BD2 over BRD4 BD1” value is reported as no less than 2 log unit.
With `CNC(=O)c1cc(C(=O)NC2CC2(C)C)cn(Cc2ccccc2)c1=O` (stereo not drawn) [Example 224, 1-Benzyl-N5-(2,2-dimethylcyclopropyl)-N3-methyl-2-oxo-1,2-dihydropyridine-3,5-dicarboxamide] the “fold selective for BRD4 BD2” value was “at least 100 fold” and the “selectivity for BRD4 BD2 over BRD4 BD1” value was no less than 2 log unit.

Source: patent publication US10428026B2, “Pyridinone dicarboxamide for use as bromodomain inhibitors” (GlaxoSmithKline Intellectual Property (No.2) Limited, priority 2015, dated 2019)
